Measurements reported in PubChem BioAssay AID652259 (Drosophila RNAi Screening Center, 2013).

- Test: 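Genome-wide hunt for genes that control Wingless pathway activity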 (primary screen)
- System: Drosophila clone 8 imaginal disc epithelial cells
- Reagents: long dsRNA against Drosophila genes
- Challenge: pathway stimulated by co-transfected Wingless expression plasmid
- Measurement: 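Firefly luciferase from a tcf-site Wingless reporter, measured alongside co-transfected Renilla luciferase that tracks transfection; pathway stimulated by a Wingless plasmid; the firefly-to-Renilla ratio is not deposited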
- Reading the numbers: firefly reporter light: higher = more Wg reporter light, before normalisation; Renilla control light: higher = more transfected or surviving cells
- Active means: 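a knock-down is a candidate when at least two out of four statistical tests show it departing from its plate mean; one test alone signals a weak candidate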
- Calls: active = candidate regulator (raises or lowers reporter); inactive = not a candidate
In all, the deposit lists about 22,000 reagents; this is a random part of those with a known target gene and a result. Of all reagents, 233 (1.1%) are marked active. 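Light values are raw, unnormalised plate reads; the ratio scores behind the reporter calls were not deposited.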 Unmarked entries are inactive. Names joined by + are all predicted targets of the reagent. Not given: the amount of reagent, the time to read-out, the dose of the treatment.

no.	gene	DRSC id	firefly reporter light, replicate 1	firefly reporter light, replicate 2	Renilla control light, replicate 1	Renilla control light, replicate 2
1	CG5550	DRSC06943	5009		2221	
2	fd96Ca	DRSC16946	20401		14842	
3	gdl-ORF39 + gdl	DRSC11350	7387		1894	
4	CG5114	DRSC10482	8125		3875	
5	CG17005	DRSC02556	2801	5992	832	2762
6	CG1598	DRSC06598	3798	10633	1107	2736
7	FarO	DRSC18475	30176		18281	
8	CG18518	DRSC01509	16813		8336	
9	His4:CG33883 + His4:CG33889 + His4:CG33899 + 20 more	DRSC21268	23347		3488	
10	opa	DRSC12384	20044		7397	
11	opa	DRSC22563	5.85e5	6.70e5	1.32e5	1.07e5
12	Treh	DRSC04548	12774		3360	
13	Topors	DRSC06531	11432		3984	
14	UQCR-Q	DRSC10886	8028		2855	
15	Patr-1	DRSC14159	5014	7472	987	1252
16	RhoGEF3	DRSC08266	19482	7.30e5	5634	3.49e5
17	RhoGEF3	DRSC08351	5510		2416	
18	RhoGEF3	DRSC08352	4891		2080	
19	RhoGEF3	DRSC08353	4756		1946	
20	Mabi	DRSC02489	4945	9931	2051	4726
21	CG2961	DRSC18246	22992		6876	
22	Gr98a	DRSC14719	1891		624	
23	CG7706	DRSC16295	2544	3719	1235	770
24	CG42500	DRSC14822	17376		2748	
25	shf	DRSC18283	15541		7652	
26	rept	DRSC11388	14576		4196	
27	Spn47C	DRSC07030	8481		2843	
28	TRAM	DRSC18178	18311		16940	
29	TRAM	DRSC18651	14137		11909	
